Reference: publication PMC10195082

The chains behind the UniProt entries cited, without tags or fusion partners. Residues count along the entry.
UniProt Q9UBX2, residues 154-424: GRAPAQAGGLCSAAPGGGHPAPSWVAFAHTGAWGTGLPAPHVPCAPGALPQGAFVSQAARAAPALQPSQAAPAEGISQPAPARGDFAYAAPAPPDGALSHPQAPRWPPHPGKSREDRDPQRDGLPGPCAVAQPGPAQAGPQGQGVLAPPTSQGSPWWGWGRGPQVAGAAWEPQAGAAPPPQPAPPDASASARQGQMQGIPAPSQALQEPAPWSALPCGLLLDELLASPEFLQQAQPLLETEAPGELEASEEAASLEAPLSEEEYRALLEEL
UniProt P42224: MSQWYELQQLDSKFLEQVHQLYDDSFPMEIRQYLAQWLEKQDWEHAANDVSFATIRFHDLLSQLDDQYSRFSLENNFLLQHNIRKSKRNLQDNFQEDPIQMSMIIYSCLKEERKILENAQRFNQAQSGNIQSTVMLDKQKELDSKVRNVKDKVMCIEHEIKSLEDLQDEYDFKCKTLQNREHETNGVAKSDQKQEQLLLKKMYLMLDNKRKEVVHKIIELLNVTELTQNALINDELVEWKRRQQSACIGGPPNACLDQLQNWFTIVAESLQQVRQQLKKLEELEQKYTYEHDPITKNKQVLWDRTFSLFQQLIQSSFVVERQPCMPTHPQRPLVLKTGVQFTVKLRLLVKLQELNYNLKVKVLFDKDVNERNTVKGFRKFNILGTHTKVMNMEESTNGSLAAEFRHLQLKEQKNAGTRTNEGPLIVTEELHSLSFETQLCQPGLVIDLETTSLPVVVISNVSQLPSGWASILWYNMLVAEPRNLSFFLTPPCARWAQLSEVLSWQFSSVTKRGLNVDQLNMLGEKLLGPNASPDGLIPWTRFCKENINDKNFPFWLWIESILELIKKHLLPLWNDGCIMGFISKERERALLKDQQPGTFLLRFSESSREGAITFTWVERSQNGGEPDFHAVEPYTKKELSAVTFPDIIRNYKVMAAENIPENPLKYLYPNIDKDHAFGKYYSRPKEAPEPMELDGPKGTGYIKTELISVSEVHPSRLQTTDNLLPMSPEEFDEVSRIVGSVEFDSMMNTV
UniProt O00571: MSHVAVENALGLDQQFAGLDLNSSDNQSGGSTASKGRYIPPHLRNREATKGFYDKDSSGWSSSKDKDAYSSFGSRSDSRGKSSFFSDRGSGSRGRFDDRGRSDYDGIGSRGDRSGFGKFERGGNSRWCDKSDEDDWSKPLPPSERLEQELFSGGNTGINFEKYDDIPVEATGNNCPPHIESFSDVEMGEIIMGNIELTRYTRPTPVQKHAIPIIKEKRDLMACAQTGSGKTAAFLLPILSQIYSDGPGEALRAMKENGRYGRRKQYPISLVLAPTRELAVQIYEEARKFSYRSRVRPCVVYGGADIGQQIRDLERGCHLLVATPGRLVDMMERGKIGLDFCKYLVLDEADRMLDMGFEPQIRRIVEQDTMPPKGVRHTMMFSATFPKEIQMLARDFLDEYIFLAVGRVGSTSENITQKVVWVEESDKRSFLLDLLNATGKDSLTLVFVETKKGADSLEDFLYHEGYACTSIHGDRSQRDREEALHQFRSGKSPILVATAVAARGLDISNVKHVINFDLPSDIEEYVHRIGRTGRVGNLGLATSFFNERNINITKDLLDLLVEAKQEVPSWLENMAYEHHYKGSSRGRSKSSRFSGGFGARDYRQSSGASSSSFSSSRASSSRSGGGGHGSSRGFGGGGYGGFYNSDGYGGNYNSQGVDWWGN

Biological target: 3xFLAG-NLS-DUX4-CTD (DUX4 aa154-424) (human) (UniProt Q9UBX2)
Assay: affinity purification with mass spectrometry; anti-FLAG [M2] cross-linked to beads, extract of MB135 cells with doxycycline-induced FLAG-tagged bait, ± IFNγ; elution with FLAG peptide; LC-MS (Orbitrap Eclipse); two experiments

binding | Substance
binds | STAT1 (endogenous, total, MB135 cells) (from UniProt P42224 1-750)
binds | PRKDC (endogenous) (from UniProt P78527 1-4128)
binds | DDX3X (endogenous) (from UniProt O00571 1-662)

These are yes or no findings as the source states them, for the method shown. In cells and extracts the contact can be indirect. Here binding means that the protein was enriched with, or labelled near, the bait; the list need not be complete.
